The results are deposited in PubChem (AID977624; Broad Institute, 2014).

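Wild-type E. coli carrying GFP, grown in the same well as an h34 humanized-ribosome RFP strain; GFP fluorescence for growth, read after 24 h. The value is the change in activity at the highest dose tested; more negative means stronger inhibition. Active requires GFP to fall at least twice as much as RFP with growth loss below a set limit; inconclusive means no clear call; everything else is inactive.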

These entries are mostly ones the record files as inconclusive; other results of the assay are not listed here.

SMILES	condition	activity change	outcome
C[C@H](CO)N1C[C@H](C)[C@H](CN(C)C(=O)Nc2ccc(F)cc2)Oc2c(NC(=O)Nc3ccccc3)cccc2C1=O	at 50 µM (top of the series)	-6.696	inactive
CCOC(=O)CN1C(=O)C(CC)Oc2ccc(Cl)cc21 (centres undefined)	at 50 µM (top of the series)	21.51	inconclusive
Cc1cccc(CN2C(=O)c3ccccc3Sc3ccc(C(=O)NCCN4CCOCC4)cc32)c1	at 50 µM (top of the series)	-10.54	inconclusive
CC(C)(C)CC(=O)NCCc1csc(-c2ccccc2)n1	at 50 µM (top of the series)	25.7	inconclusive
Cc1nn(CC(=O)c2ccc(Br)s2)c(C)c1[N+](=O)[O-]	at 50 µM (top of the series)	33	inconclusive
COc1ccc(OC)c(NC(=O)CN(C)CC(=O)Nc2ccccc2Br)c1	at 50 µM (top of the series)	0.012	inconclusive
Cc1ccc(OCC(O)CN2CCN(c3ccccn3)CC2)c(C)c1 (centres undefined)	at 50 µM (top of the series)	1.757	inconclusive
CC(=O)c1cccc(NC(=O)C2CCCN(S(C)(=O)=O)C2)c1 (centres undefined)	at 50 µM (top of the series)	69.94	inconclusive
COc1cccc(C(=O)NC(C)c2ccc(Br)cc2)c1 (centres undefined)	at 50 µM (top of the series)	9.705	inconclusive
COCCCn1c(C)cc(C(=O)COC(=O)CCc2nc3ccccc3c(=O)[nH]2)c1C	at 50 µM (top of the series)	16.33	inconclusive
O=C(CCC(=O)N1CCN(c2ccc(F)cc2)CC1)c1ccc(F)cc1	at 50 µM (top of the series)	2.404	inactive
Cc1cccc(OCCn2c(=O)oc3ccc(C)cc32)c1	at 50 µM (top of the series)	15.09	inconclusive
O=C(OCC1COc2ccccc2O1)c1ccccc1F (centres undefined)	at 50 µM (top of the series)	16.29	inconclusive
CC(=O)NCCOc1nc(N2CCCCC2)nc(N2CCCCC2)n1	at 50 µM (top of the series)	13.91	inconclusive
O=C(c1ccc(Cl)cc1)N1CCN(c2cccc3[nH]ccc23)CC1	at 50 µM (top of the series)	-11.66	inconclusive
C[C@@H]1CCCCO[C@@H](CN(C)C(=O)CCCN(C)C)[C@H](C)CN([C@@H](C)CO)C(=O)c2cc(NC(=O)Nc3cccc4ccccc34)ccc2O1	at 50 µM (top of the series)	18.66	inconclusive
Cc1cccc(Oc2ccc(NC(=O)c3ccccc3C(=O)O)cc2)c1	at 50 µM (top of the series)	-8.715	inconclusive
COc1cccc(CN(C)Cc2nc(Cc3ccccc3Cl)no2)c1	at 50 µM (top of the series)	8.926	inconclusive
CCn1c(SCC(=O)Nc2ccc(OC)cc2)nc2nc3c(cc2c1=O)CCCC3	at 50 µM (top of the series)	1.89	inactive
N#Cc1nc(COc2cccc(Cl)c2)oc1N1CCCC1	at 50 µM (top of the series)	-4.246	inactive
Nc1ccc(C(=O)Nc2ccc3nc(-c4ccncc4)[nH]c3c2)cc1	at 50 µM (top of the series)	9.369	inactive
CC[N+](CC)(CC#Cc1ccccc1)CC#Cc1ccccc1	at 50 µM (top of the series)	-1.406	inconclusive
O=S(=O)(c1cnc(Cl)c(Cl)c1)N1CCc2ccccc21	at 50 µM (top of the series)	-11.22	inactive
COC(=O)c1cc2c(c3c4cc(F)ccc4n(S(=O)(=O)c4ccccc4)c13)C(=O)N(Cc1ccco1)C2	at 50 µM (top of the series)	23.69	inconclusive
CSc1ncc(CN2CCCC(C(=O)c3cccc(Cl)c3)C2)cn1 (centres undefined)	at 50 µM (top of the series)	-11.92	inconclusive
CCn1nnc(NC(=O)c2ccc([N+](=O)[O-])o2)n1	at 50 µM (top of the series)	40.35	inconclusive
CS(=O)(=O)N(CC(=O)N1CCc2ccccc2C1)c1cccc(Br)c1	at 50 µM (top of the series)	1.835	inactive
CCOc1ccc(OCC)c(NC(=O)CSc2nc3cccnc3n2C)c1	at 50 µM (top of the series)	-41.5	inconclusive
Fc1ccccc1C1CCN(Cc2nc(CC3CC3)no2)C1 (centres undefined)	at 50 µM (top of the series)	8.405	inactive
O=C(NC1CCCC1)c1ccc([N+](=O)[O-])s1	at 50 µM (top of the series)	17.15	inconclusive
O=C(CSCc1c(Cl)cccc1Cl)Nc1cccnc1	at 50 µM (top of the series)	17.81	inconclusive
CCOC(=O)c1ccc(NC(=O)COc2ccc(CNCCO)cc2OCC)cc1	at 50 µM (top of the series)	45.35	inconclusive
O=[N+]([O-])c1ccc(O)c(CSc2nnnn2-c2ccccc2)c1	at 50 µM (top of the series)	23.24	inconclusive
Cc1cc2nc(SCC(=O)O)nc(C)c2cc1C	at 50 µM (top of the series)	2.858	inactive
O=C1OC[C@@H]2CCCN2C(=O)[C@@H](CC(=O)N(CCO)Cc2ccccc2)C/C=C\C[C@H]1Cc1ccc(F)cc1	at 50 µM (top of the series)	2.444	inactive
CC(=O)c1cccc(NC(=O)COC(=O)CCC(=O)c2ccc(F)cc2)c1	at 50 µM (top of the series)	4.597	inactive
CS(=O)(=O)c1ccc(Cl)c(NC(=O)COC(=O)c2c(Cl)cccc2Cl)c1	at 50 µM (top of the series)	36.66	inconclusive
Cc1ccc2nc(-c3ccc(Cl)cc3)c(Cc3ccccc3C(F)(F)F)n2c1	at 50 µM (top of the series)	29.9	inconclusive
CCc1cccc(CC)c1NC(=O)Cn1c(-c2ccc(F)cc2)noc1=O	at 50 µM (top of the series)	31.4	inconclusive
Cc1ccc(OCCCC(=O)NC(C)c2ccccc2)c(C)c1 (centres undefined)	at 50 µM (top of the series)	1.873	inconclusive
COc1cc(OC)cc(C(=O)Nc2ccc(S(=O)(=O)Nc3cnc4ccccc4n3)cc2)c1	at 50 µM (top of the series)	-31.39	inconclusive
CCCCn1c(NS(=O)(=O)c2ccc(C)cc2)c(C(=O)OCC)c2nc3ccccc3nc21	at 50 µM (top of the series)	-3.64	inconclusive
COc1ccc(C#Cc2ccc([C@H]3[C@@H](CO)N4CCCCN(C(=O)Nc5cccc(F)c5)C[C@H]34)cc2)cc1	at 50 µM (top of the series)	13.22	inconclusive
O=C(Cc1cccc(NC(=O)C2CCN(C(=O)CCc3ccccc3)CC2)c1)Nc1cccc(C(=O)N2CCCC2)c1	at 50 µM (top of the series)	16.37	inconclusive
CC(=O)Nc1cccc(NC(=O)c2c(-c3c(Cl)cccc3Cl)noc2C)c1	at 50 µM (top of the series)	4.515	inconclusive